Data from the supplement of paper PMC10849652.
Some of the results follow.

The chains behind the UniProt entries cited, without tags or fusion partners. Where a name states a change or a piece, a line headed by the entry shows the natural chain unless it says otherwise.
UniProt Q9NUA8: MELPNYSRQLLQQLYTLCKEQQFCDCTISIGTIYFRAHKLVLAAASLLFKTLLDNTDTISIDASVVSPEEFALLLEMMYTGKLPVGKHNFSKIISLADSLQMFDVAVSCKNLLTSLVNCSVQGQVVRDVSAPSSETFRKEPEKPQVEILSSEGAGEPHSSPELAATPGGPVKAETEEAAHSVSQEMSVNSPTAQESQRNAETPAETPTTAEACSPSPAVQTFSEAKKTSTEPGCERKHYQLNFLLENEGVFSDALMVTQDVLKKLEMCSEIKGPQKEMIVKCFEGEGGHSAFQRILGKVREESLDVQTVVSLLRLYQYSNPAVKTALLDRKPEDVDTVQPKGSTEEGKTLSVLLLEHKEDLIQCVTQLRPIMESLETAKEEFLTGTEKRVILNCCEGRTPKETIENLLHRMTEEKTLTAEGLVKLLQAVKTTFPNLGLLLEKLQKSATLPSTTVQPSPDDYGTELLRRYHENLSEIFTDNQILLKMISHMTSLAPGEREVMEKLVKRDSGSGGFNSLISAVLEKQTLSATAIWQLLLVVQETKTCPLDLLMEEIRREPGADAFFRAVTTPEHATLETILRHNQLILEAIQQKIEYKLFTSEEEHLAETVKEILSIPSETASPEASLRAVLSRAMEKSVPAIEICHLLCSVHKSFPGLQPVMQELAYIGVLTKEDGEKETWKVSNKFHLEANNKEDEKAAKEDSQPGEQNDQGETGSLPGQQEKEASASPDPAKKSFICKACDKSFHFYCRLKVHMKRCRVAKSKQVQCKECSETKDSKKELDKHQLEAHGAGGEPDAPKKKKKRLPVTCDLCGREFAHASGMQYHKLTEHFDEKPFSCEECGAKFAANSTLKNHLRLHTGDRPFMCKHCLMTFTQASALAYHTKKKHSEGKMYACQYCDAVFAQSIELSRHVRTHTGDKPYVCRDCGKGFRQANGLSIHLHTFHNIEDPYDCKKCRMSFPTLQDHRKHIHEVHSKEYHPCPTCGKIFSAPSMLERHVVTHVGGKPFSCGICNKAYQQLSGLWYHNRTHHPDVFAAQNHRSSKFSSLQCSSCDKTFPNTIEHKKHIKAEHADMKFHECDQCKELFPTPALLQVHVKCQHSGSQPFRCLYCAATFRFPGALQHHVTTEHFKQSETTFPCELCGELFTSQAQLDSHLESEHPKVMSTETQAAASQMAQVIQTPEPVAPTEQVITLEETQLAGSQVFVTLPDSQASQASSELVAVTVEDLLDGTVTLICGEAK
UniProt Q6NZY4: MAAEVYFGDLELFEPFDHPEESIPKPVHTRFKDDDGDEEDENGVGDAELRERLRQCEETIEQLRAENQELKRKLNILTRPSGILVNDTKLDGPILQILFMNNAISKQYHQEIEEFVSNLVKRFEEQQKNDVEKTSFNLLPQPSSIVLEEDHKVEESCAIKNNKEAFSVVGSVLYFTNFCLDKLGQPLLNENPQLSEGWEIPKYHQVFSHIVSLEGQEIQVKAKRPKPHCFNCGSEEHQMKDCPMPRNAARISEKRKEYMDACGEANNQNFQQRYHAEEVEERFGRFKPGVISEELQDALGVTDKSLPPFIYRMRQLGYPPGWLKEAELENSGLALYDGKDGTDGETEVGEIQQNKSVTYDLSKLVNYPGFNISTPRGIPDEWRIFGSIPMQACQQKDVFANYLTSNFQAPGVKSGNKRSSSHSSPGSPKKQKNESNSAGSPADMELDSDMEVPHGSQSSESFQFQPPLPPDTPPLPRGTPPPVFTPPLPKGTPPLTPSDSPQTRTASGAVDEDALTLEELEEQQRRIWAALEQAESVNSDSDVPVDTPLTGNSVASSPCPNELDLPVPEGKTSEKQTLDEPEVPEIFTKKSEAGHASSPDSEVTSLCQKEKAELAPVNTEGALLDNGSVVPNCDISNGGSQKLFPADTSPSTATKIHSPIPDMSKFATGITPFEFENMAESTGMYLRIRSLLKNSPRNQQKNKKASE
UniProt O76080: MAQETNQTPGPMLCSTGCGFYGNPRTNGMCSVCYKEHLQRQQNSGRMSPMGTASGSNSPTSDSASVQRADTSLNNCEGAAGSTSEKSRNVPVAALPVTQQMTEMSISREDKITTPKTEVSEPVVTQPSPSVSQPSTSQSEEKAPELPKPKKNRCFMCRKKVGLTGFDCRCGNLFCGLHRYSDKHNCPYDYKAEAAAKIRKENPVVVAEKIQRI
UniProt Q9H0D6: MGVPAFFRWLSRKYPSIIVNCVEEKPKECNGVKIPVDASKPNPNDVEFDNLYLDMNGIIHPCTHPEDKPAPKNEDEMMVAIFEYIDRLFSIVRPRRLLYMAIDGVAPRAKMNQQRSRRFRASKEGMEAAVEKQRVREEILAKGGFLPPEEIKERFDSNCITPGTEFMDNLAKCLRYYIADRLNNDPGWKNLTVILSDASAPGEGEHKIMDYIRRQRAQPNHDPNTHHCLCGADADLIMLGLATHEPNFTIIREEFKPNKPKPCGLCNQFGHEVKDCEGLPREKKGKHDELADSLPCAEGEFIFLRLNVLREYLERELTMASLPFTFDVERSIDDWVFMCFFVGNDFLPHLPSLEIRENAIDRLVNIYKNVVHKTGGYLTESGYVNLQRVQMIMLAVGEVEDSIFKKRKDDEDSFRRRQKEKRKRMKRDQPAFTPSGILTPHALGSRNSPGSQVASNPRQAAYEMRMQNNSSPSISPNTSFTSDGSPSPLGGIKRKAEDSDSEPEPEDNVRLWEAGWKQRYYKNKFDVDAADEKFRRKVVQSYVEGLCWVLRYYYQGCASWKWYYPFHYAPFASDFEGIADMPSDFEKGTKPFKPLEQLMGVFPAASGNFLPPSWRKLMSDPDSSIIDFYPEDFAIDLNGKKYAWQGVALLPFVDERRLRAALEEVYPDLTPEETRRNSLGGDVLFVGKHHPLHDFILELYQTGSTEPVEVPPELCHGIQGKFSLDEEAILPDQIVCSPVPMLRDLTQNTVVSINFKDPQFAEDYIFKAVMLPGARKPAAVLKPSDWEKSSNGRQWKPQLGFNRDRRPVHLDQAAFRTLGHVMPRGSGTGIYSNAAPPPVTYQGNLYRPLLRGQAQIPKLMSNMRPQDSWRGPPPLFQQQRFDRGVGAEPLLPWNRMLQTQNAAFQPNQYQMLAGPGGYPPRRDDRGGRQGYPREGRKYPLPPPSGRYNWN
UniProt Q96TA2: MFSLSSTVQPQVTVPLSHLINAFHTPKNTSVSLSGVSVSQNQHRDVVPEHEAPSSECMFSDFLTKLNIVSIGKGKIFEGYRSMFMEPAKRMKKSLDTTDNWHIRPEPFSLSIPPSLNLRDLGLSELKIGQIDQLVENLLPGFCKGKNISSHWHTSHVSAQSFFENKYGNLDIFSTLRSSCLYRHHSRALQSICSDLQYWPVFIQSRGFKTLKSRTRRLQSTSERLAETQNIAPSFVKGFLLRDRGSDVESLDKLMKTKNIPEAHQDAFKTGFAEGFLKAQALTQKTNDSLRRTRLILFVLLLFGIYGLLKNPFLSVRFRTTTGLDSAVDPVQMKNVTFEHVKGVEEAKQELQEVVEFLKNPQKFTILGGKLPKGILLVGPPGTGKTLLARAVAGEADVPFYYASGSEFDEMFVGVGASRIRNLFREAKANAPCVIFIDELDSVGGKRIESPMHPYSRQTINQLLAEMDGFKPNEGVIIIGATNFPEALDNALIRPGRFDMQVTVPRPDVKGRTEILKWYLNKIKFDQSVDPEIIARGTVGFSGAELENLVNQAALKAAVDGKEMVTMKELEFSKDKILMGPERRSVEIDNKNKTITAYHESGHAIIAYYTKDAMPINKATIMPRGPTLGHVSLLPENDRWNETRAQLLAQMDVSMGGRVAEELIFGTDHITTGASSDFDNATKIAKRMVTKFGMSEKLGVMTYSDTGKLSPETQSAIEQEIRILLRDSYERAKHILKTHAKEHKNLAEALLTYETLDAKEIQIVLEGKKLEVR
UniProt Q13426: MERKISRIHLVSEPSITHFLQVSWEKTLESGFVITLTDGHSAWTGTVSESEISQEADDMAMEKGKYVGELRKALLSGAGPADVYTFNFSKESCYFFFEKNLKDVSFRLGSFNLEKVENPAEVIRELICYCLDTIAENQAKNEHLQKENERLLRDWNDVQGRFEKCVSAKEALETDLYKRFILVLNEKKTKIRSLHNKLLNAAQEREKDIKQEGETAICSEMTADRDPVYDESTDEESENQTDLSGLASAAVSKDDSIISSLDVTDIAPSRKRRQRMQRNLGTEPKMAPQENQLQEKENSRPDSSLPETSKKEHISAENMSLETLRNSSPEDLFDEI
UniProt P31946: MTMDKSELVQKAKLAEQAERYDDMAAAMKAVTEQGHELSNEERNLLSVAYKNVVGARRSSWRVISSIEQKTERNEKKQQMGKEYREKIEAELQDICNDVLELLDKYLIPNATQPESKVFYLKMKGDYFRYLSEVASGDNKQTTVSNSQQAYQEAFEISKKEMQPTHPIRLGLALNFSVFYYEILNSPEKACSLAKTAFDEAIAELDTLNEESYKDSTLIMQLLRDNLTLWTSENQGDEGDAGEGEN
UniProt Q86U90: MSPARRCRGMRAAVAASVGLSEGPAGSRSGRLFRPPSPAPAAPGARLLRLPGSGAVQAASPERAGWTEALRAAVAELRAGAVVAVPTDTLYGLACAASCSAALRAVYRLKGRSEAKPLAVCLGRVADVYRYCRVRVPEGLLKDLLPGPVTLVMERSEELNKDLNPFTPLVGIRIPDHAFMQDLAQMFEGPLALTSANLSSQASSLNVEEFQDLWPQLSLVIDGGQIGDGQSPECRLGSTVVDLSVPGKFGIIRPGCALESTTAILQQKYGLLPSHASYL
UniProt Q96QU8: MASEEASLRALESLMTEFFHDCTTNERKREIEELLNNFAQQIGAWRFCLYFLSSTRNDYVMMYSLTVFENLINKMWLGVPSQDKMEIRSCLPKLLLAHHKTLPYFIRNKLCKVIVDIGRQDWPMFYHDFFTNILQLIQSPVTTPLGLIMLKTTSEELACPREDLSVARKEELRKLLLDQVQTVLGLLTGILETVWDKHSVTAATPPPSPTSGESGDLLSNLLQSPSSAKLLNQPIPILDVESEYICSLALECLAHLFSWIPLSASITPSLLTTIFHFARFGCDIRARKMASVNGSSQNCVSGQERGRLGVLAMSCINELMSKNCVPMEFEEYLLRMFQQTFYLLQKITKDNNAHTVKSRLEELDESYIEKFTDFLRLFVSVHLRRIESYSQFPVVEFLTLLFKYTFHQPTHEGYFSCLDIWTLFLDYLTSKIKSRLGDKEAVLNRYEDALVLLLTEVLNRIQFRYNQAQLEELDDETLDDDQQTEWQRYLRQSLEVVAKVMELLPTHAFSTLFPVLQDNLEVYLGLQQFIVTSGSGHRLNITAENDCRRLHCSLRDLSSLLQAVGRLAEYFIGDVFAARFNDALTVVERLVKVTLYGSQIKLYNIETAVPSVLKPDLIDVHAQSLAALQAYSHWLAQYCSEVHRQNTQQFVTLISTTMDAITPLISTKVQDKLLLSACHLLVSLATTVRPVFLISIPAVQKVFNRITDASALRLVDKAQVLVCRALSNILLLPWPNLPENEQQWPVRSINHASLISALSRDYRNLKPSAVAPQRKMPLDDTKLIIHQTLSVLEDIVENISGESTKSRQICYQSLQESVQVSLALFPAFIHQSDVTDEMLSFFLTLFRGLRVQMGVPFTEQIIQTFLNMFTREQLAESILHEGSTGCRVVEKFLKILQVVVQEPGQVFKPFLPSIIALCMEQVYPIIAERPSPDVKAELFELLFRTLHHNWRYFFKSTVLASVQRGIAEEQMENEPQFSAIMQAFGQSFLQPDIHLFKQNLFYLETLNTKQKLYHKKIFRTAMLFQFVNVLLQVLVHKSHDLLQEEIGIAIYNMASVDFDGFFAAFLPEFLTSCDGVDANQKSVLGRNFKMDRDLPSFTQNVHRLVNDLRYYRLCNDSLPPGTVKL
UniProt Q9NQH7: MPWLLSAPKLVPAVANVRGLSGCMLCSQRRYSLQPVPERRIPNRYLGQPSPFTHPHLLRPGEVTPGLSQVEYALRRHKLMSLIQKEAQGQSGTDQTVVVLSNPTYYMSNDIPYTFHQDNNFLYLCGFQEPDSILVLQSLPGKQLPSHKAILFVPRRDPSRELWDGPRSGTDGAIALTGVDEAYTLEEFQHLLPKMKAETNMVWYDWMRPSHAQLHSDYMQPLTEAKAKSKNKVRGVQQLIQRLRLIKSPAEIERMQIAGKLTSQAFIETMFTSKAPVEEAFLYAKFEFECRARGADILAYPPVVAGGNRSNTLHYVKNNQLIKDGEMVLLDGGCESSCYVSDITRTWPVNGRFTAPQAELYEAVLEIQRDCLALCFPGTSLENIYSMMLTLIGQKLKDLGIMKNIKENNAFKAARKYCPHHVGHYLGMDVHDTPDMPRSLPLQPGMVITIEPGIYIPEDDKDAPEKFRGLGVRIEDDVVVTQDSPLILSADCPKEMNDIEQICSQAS

Key:
Assay in all cases: log2 fold change, soluble protein after heating vs DMSO (PISA); higher = thermal stabilisation; K562 lysate, 10 uM; active = over 0.2 and 3.5 SD of the protein, either way, in both replicates (recomputed)
[1] = compound: Cc1cn(-c2cc(NC(=O)c3ccc(C)c(Nc4nccc(-c5cccnc5)n4)c3)cc(C(F)(F)F)c2)cn1 [nilotinib]
In short: (§1)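 K562 pellets were dounce-homogenised in PBS pH 7.4 containing 1 mM MgCl2, and the crude extract, at 1 mg/mL protein, was exposed to 10 μM compound for 30 min. Aliquots were heated for 3 min across 48°C-58°C, pooled, brought to 0.5% NP-40 at 4°C and spun at 21,000xg for 90 min, with the supernatant taken as soluble protein. TMTpro 16plex LC-MS/MS with equalised channel sums quantified that protein. Values are log-two fold changes in thermal stability relative to solvent controls, taken from duplicates.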

[2] = compound: Cc1nc(Nc2n[nH]c3c2CN(C(=O)N[C@H](CN(C)C)c2ccccc2)C3(C)C)c2sccc2n1
In short: as §1

[3] = compound: Cc1nc(Nc2ncc(C(=O)Nc3c(C)cccc3Cl)s2)cc(N2CCN(CCO)CC2)n1 [dasatinib]
In short: as §1

[4] = compound: Cc1ncc(-c2ccnc(Nc3ccc(S(C)(=O)=O)cc3)n2)n1C(C)C
In short: as §1

[5] = compound: Cn1cc(-c2ccc3c(c2)CCN3C(=O)Cc2cccc(C(F)(F)F)c2)c2c(N)ncnc21
In short: as §1

[6] = compound: Cn1cc(CNCC2CCN(c3ncc(C(=O)NO)cn3)CC2)c2ccccc21 [quisinostat]
In short: as §1

[7] = compound: Cn1cncc1[C@@](N)(c1ccc(Cl)cc1)c1ccc2c(c1)c(-c1cccc(Cl)c1)cc(=O)n2C [tipifarnib]
In short: as §1

[8] = compound: NC(=O)Nc1cc(-c2cccc(F)c2)sc1C(=O)N[C@H]1CCCNC1
In short: as §1

[9] = compound: NC(=O)c1cnc(N[C@@H]2CCCC[C@@H]2N)nc1Nc1cccc(-n2nccn2)c1
In short: as §1

[10] = compound: NC1(c2ccc(-c3nc4ccn5c(=O)[nH]nc5c4cc3-c3ccccc3)cc2)CCC1
In short: as §1

[11] = compound: NCC(=O)Nc1ccc(-n2nc(C(F)(F)F)cc2-c2ccc3c(ccc4ccccc43)c2)cc1
In short: as §1

[12] = compound: O=C(CCCCCCC(=O)Nc1ccccc1)NO [vorinostat]
In short: as §1

[13] = compound: O=C(O)c1ccc2c(c1)nc(Nc1cccc(Cl)c1)c1ccncc12 [silmitasertib]
In short: as §1

[14] = compound: O=C1NC(=O)C(c2cnc3ccccn23)=C1c1cn2c3c(cc(F)cc13)CN(C(=O)N1CCCCC1)CC2
In short: as §1

[15] = compound: c1cn2cc(-c3ccc4cn[nH]c4c3)nc(Nc3ccc(N4CCOCC4)cc3)c2n1 [entospletinib]
In short: as §1

Measured: log2 fold change

ZBTB40 (UniProt Q9NUA8)
inactive: [1] -0.076 | [2] 0.29 | [3] -0.024 | [4] 0.086 | [5] -0.051 | [6] -0.01 | [7] 0.078 | [8] -0.018 | [9] 0.004 | [10] 0.058 | [11] 0.073 | [12] -0.118 | [13] 0.024 | [14] 0.036

ZCCHC8 (UniProt Q6NZY4)
inactive: [1] 0.027 | [2] -0.006 | [3] 0.013 | [4] -0.024 | [5] -0.007 | [6] -0.025 | [7] 0.005 | [8] 0.007 | [9] 0.001 | [10] 0.016 | [11] -0.002 | [12] -0.081 | [13] -0.033 | [14] 0 | [15] 0.017

ZFAND5 (UniProt O76080)
inactive: [1] 0.029 | [2] 0.016 | [3] 0.002 | [4] 0.116 | [5] 0.01 | [6] 0.104 | [7] -0.038 | [8] -0.191 | [9] 0.065 | [10] 0.175 | [11] 0.103 | [12] 0.233 | [13] 0.161 | [14] -0.039

XRN2 (UniProt Q9H0D6)
inactive: [1] 0.011 | [2] 0.016 | [3] 0.008 | [4] -0.001 | [5] 0.015 | [6] -0.012 | [7] -0.022 | [8] 0.007 | [9] 0 | [10] -0.035 | [11] -0.059 | [12] 0.026 | [13] -0.037 | [14] -0.035 | [15] -0.027

YME1L1 (UniProt Q96TA2)
inactive: [1] 0.011 | [2] -0.06 | [3] 0 | [4] 0.026 | [5] -0.044 | [6] -0.045 | [7] -0.019 | [8] 0.016 | [9] 0.06 | [10] -0.059 | [11] -0.001 | [12] 0.04 | [13] 0.007 | [14] -0.008 | [15] 0.02

XRCC4 (UniProt Q13426)
inactive: [1] -0.005 | [2] -0.043 | [3] 0.049 | [4] -0.008 | [5] 0.019 | [6] 0.132 | [7] -0.013 | [8] 0.002 | [9] -0.029 | [10] -0.055 | [11] 0.035 | [12] 0.125 | [13] 0.023 | [14] 0.06 | [15] -0.037

YWHAB (UniProt P31946)
inactive: [1] -0.003 | [2] -0.006 | [3] 0.069 | [4] -0.003 | [5] 0.025 | [6] -0.002 | [7] 0.046 | [8] 0 | [9] -0.012 | [10] 0.02 | [11] 0.066 | [12] 0.103 | [13] -0.027 | [14] -0.009 | [15] 0.016

Quoted from the entries so far (3 entries):
YME1L1 (UniProt Q96TA2)
inactive: [1] 0.011 | [2] -0.06 | [3] 0 | [4] 0.026 | [5] -0.044 | [6] -0.045 | [7] -0.019 | [8] 0.016 | [9] 0.06 | [10] -0.059 | [11] -0.001 | [12] 0.04 | [13] 0.007 | [14] -0.008 | [15] 0.02

XRCC4 (UniProt Q13426)
inactive: [1] -0.005 | [2] -0.043 | [3] 0.049 | [4] -0.008 | [5] 0.019 | [6] 0.132 | [7] -0.013 | [8] 0.002 | [9] -0.029 | [10] -0.055 | [11] 0.035 | [12] 0.125 | [13] 0.023 | [14] 0.06 | [15] -0.037

YWHAB (UniProt P31946)
inactive: [1] -0.003 | [2] -0.006 | [3] 0.069 | [4] -0.003 | [5] 0.025 | [6] -0.002 | [7] 0.046 | [8] 0 | [9] -0.012 | [10] 0.02 | [11] 0.066 | [12] 0.103 | [13] -0.027 | [14] -0.009 | [15] 0.016

The list continues:

ZC3HC1 (UniProt Q86WB0)
inactive: [1] -0.013 | [2] -0.005 | [3] 0.029 | [4] 0.007 | [5] -0.009 | [6] -0.033 | [7] -0.03 | [8] 0.025 | [9] 0.017 | [10] 0.024 | [11] 0.021 | [13] -0.034 | [14] -0.03 | [15] 0.01
active: [12] -0.368

YRDC (UniProt Q86U90)
inactive: [1] 0 | [2] 0.021 | [3] 0.022 | [4] 0.018 | [5] -0.019 | [6] -0.019 | [7] 0.008 | [8] -0.004 | [9] 0.01 | [10] -0.003 | [11] 0.024 | [13] 0.006 | [14] -0.017 | [15] -0.016
active: [12] -0.424

XPO6 (UniProt Q96QU8)
inactive: [1] 0.005 | [2] 0.027 | [3] -0.008 | [4] -0.054 | [5] -0.026 | [6] -0.123 | [7] -0.018 | [8] 0.078 | [9] 0.033 | [10] -0.04 | [11] -0.034 | [13] 0.049 | [14] -0.031 | [15] -0.027
active: [12] -0.401

XPNPEP3 (UniProt Q9NQH7)
inactive: [1] 0 | [2] -0.03 | [3] -0.013 | [4] 0.026 | [5] -0.029 | [6] 0.182 | [7] 0.083 | [8] 0.02 | [9] -0.043 | [10] -0.025 | [11] -0.004 | [12] 0.217 | [13] 0.014 | [14] -0.01 | [15] 0.043
